The record followed here is paper doi:10.1101/177881.

By UniProt entry, the sequences of proteins in these tests, tags left out.
UniProt Q00987: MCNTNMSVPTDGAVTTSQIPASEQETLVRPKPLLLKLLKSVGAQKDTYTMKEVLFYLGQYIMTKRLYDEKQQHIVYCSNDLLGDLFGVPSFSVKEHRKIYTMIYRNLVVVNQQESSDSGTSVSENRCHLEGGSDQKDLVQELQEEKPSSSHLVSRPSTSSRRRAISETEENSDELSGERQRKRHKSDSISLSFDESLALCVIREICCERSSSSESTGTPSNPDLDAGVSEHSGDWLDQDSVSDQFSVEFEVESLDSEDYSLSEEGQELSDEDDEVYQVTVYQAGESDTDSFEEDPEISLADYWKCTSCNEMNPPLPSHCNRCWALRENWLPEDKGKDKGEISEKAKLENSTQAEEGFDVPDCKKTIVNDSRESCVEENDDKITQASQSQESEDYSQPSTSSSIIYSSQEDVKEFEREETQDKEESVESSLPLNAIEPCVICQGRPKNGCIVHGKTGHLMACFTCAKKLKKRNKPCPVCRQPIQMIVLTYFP

In the assay the target is HA-MDM2 (UniProt Q00987). Briefly: co-IP.

These are yes or no findings as the source states them, for the method shown. In cells and extracts the contact can be indirect.

Myc-SPIN1 (from UniProt Q9Y657 1-262): the binding entry was “no binding”.
